No constants are given. Whether binding was seen depends on the method and setting. Some entries that bind do so weakly or less than the wild type.
What was measured:
[1] = target: T1, human TALL-1R polypeptide encoded by clone 706, on transfected 293 cells (human); assay: FACS on transfected 293 cells, 1 µg/ml FLAG-TALL-1 with or without 10 µg/ml TACI-Fc, FITC anti-FLAG M2
T1 sequence: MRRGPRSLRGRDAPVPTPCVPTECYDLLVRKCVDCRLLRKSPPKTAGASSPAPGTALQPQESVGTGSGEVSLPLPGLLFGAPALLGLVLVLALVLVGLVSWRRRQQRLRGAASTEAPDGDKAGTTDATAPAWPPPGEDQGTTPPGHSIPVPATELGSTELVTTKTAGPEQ

Chains of the proteins cited; added tags and fusions are not shown. Residues count along the entry.
UniProt Q9Y275, residues 134-285: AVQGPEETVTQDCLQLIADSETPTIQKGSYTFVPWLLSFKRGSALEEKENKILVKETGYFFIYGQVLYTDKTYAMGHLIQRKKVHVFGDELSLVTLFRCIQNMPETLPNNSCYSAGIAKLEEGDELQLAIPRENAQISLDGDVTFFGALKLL

[2] = target: T2, human TALL-1R polypeptide encoded by clone 711, on transfected 293 cells (human); assay: as above
T2 sequence: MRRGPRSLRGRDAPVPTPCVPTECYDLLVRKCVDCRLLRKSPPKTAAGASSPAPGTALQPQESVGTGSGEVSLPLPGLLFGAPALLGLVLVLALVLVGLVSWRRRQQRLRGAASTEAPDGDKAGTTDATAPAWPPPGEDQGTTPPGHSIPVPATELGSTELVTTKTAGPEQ

[3] = target: T1, human TALL-1R polypeptide encoded by clone 706, on transfected 293 cells (human); assay: europium-labeled TALL-1 binding to 293 cells transfected with single clones (clone 706, named in paragraph 372)
[4] = target: T3, human TALL-1R polypeptide encoded by clone 710, on transfected 293 cells (human); assay: europium-labeled TALL-1 binding to 293 cells transfected with single clones (clone 710, named in paragraph 372)
T3 sequence: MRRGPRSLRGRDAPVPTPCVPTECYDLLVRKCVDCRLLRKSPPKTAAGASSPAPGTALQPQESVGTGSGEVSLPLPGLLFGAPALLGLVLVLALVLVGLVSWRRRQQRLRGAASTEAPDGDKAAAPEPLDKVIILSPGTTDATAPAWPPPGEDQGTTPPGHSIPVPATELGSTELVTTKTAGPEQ

[5] = target: T2, human TALL-1R polypeptide encoded by clone 711, on transfected 293 cells (human); assay: europium-labeled TALL-1 binding to 293 cells transfected with single clones (clone 711, named in paragraph 372)
[6] = target: T4, human TALL-1R polypeptide encoded by clone 713, on transfected 293 cells (human); assay: europium-labeled TALL-1 binding to 293 cells transfected with single clones (clone 713, named in paragraph 372)
T4 sequence: T2 sequence

Measured: binding

FLAG-TALL-1 (from UniProt Q9Y275 134-285) (ligand)
binds: [1] | [2]

europium-labeled TALL-1 protein (from UniProt Q9Y275 134-285) (ligand)
binds: [3] | [4] | [5] | [6]

Source: patent US20030099990A1
